# In PubChem BioAssay AID651768 (National Center for Advancing Translational Sciences (NCATS), 2012):
# The chains behind the UniProt entries cited, without tags or fusion partners.
# UniProt Q14191, whole entry, looked up: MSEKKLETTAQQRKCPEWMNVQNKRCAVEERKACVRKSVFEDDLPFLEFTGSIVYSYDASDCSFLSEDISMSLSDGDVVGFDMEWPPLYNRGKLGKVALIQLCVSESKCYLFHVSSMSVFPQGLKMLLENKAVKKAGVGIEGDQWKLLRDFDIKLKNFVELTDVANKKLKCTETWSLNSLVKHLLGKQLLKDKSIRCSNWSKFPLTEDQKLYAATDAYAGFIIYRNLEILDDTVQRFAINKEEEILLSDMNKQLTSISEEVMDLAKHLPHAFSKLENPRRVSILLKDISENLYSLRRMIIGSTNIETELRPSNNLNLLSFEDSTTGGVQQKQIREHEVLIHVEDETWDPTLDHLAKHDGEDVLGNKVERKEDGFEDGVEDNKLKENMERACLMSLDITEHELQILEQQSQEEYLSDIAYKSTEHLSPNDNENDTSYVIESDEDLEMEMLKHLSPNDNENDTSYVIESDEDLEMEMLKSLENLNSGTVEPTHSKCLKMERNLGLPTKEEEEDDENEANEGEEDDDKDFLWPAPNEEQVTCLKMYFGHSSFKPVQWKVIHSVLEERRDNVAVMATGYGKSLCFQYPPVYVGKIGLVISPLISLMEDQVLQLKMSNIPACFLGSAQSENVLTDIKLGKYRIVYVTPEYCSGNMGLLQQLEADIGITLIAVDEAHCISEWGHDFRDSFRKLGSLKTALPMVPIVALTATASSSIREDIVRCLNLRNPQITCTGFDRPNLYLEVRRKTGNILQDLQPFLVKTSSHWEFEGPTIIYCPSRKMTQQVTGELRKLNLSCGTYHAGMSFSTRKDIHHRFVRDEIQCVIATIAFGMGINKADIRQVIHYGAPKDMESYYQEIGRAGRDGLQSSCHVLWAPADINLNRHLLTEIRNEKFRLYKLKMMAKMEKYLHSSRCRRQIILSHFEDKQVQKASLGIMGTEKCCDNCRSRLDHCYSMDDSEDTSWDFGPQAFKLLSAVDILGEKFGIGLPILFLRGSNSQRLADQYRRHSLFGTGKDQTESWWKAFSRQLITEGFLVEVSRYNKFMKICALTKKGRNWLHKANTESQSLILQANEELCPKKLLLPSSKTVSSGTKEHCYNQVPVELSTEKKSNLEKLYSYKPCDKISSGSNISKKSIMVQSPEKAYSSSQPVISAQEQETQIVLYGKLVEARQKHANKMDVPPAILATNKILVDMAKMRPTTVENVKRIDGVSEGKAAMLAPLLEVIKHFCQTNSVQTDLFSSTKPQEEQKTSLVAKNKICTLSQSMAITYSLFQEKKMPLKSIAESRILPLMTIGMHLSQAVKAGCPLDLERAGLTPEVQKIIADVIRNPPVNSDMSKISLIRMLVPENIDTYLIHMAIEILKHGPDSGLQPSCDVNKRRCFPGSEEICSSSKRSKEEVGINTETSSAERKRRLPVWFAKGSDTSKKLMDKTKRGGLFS
# The whole screen tested about 360,000 compounds, of which about 1,700 (0.47%) were called active. Inconclusive means that the source gave no clear call. Such entries were picked first, then a sample of the others. Calls follow the shape of the dose curve; as a rule, active = well fitted inhibition curve with a large enough effect; inconclusive = small, poorly fitted or top-dose-only effect; inactive = no such curve, though single readings can be large or run the other way. A potency beside an inconclusive call is a rough fit, not a confirmed value.
# Target: Bifunctional 3'-5' exonuclease/ATP-dependent helicase WRN (Homo sapiens) (UniProt Q14191)
# Experiment: qHTS for Inhibitors of WRN Helicase; also: nearly all actives have a fitted effect of over 55% in size
# Conditions: WRN helicase unwinding, fluorescent forked duplex, kinetic; activity change, negative = inhibition: at 114 µM (top of the series) unless noted
# Procedure, shortened: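 Screening of the MLSMR collection measured strand separation of a quenched forked DNA duplex (100 nM) by 20 nM WRN with 2 mM ATP, all final. Compounds were preincubated with enzyme 15 min at room temperature.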
# % is scaled to controls: 0 for no effect and ±100 for the full control effect; potency is read from the fitted curve at half-maximal effect.
Compound,Potency,"activity change, negative = inhibition"
COc1cccc(C(c2c(C)[nH]n(-c3ccccc3)c2=O)c2c(C)[nH]n(-c3ccccc3)c2=O)c1OC,"inconclusive: 18.9 µM [inhibitor, partial curve]",–
COC(C(=O)N1CCC(CCC(=O)Nc2ccccc2)CC1)c1ccccc1 (stereo not drawn),"inconclusive: 89.1 µM [inhibitor, single point]",–
O=C(c1cc2nc(C3CC3)cc(C(F)F)n2n1)N1CCOCC1,"inconclusive: 100 µM [inhibitor, partial curve, poor fit]",–
CNC(CC(=O)c1ccc([N+](=O)[O-])cc1)C(Cl)(Cl)Cl (stereo not drawn),active: 44.7 µM,–
O=C(O)/C=C/c1ccc(S(=O)(=O)Nc2ccc(OCc3ccccc3)cc2)cc1,–,inactive: -9.5%
COc1ccc([N+](=O)[O-])cc1NC(=O)CCS(=O)(=O)c1ccc(Br)cc1,–,inactive: -6.58% [at 11.6 µM]
O=C(CN1C(=O)COc2ccc(S(=O)(=O)N3CCCC3)cc21)NCc1ccccn1,"inconclusive: 89.1 µM [inhibitor, single point]",–
Cc1cc(=O)oc2cc(OCC(=O)c3ccc4c(c3)NC(=O)CO4)ccc12,"inconclusive: 3.16 µM [inhibitor, partial curve, poor fit]",–
CC(=O)c1cccc(NC(=O)COC(=O)c2ccc(S(C)(=O)=O)c([N+](=O)[O-])c2)c1,–,inactive: -24.3% [at 57.1 µM]
NC(CSC(c1ccccc1)(c1ccccc1)c1cccc2ccccc12)C(=O)O (stereo not drawn),"inconclusive: 50.1 µM [inhibitor, partial curve]",–
CC(SCc1nc2sc3c(c2c(=O)[nH]1)CCCC3)C(=O)Nc1ccccn1 (stereo not drawn),"inconclusive: 44.7 µM [inhibitor, partial curve]",–
O=C(O)/C=C/C(=O)c1ccc2c(c1)CCc1ccccc1-2,active: 1.5 µM,–
C=CCc1c(OC)ccc2c1c(S(=O)(=O)c1ccc(C)cc1)cn2COC,"inconclusive: 31.6 µM [inhibitor, single point]",–
CCS(=O)(=O)c1nc(S(=O)(=O)c2ccc(Cl)cc2)c(NCCN2CCOCC2)s1,–,inactive: 10%
CSc1ccc(NC(=O)NCc2ccccc2)cc1,"inconclusive: 10 µM [inhibitor, full curve, poor fit]",–
Cc1cc(C)n(C(=O)CNC(=O)c2ccc(Cl)cc2Cl)n1,"inconclusive: 89.1 µM [inhibitor, single point]",–
CN(C[C@@H](Cc1cccc2ccccc12)N(C[C@H](Cc1ccccc1)N(CCc1ccccc1)N=O)N=O)N=O,"inconclusive: 100 µM [inhibitor, single point]",–
CC(C)N(CCC(=O)c1ccc2ccccc2c1)Cc1ccccc1,"inconclusive: 56.2 µM [inhibitor, partial curve]",–
CC(C)(C)c1ccc(C(=O)Nc2ccc(C(=O)N3CCCC3)cc2)cc1,"inconclusive: 70.8 µM [inhibitor, single point]",–
Cc1nc(CSc2nsc(/C=C/N(C)C)c2C#N)cs1,"inconclusive: 39.8 µM [inhibitor, single point]",–
Cc1ccccc1NCC(=O)N/N=C/c1c[nH]c2ccccc12,–,inactive: -0.472%
CCOC(=O)C1=C(C)NC(=S)NC1c1ccco1 (stereo not drawn),"inconclusive: 63.1 µM [inhibitor, partial curve, poor fit]",–

Compound,Potency,"activity change, negative = inhibition"
CCOC(=O)C(C#N)=C1CCC=C(C)C1,–,inactive: 7.92%
Cn1c(-c2ccccc2)c(/C=N/NC(=O)c2ccc(O)cc2)c2ccccc21,–,inactive: -6.71%
CCN(CC)S(=O)(=O)c1cccc(C(=O)N/N=C/c2ccc(O)c(O)c2O)c1,active: 25.1 µM,–
O=C(c1coc(=O)c(Br)c1)N1CCOCC1,"inconclusive: 56.2 µM [inhibitor, partial curve]",–
O=C1Nc2ccc3sc4ccccc4c3c2C1=O,"inconclusive: 39.8 µM [inhibitor, partial curve]",–
COc1ccc(NC(=O)CCC(=O)c2cccs2)cc1S(=O)(=O)Nc1ccc(Cl)cc1,"inconclusive: 31.6 µM [inhibitor, full curve]",–
COc1ccc(/C=C2/SC(=S)N(c3ccc(S(=O)(=O)Nc4nccs4)cc3)C2=O)cc1,"inconclusive: 56.2 µM [inhibitor, partial curve]",–
CCOC(=O)c1c(-c2ccc(F)cc2)csc1NC(=O)C1CCCO1 (stereo not drawn),–,inactive: -11.6%
CNS(=O)(=O)c1cccc(C(=O)OCC(=O)c2c(N)n(Cc3ccccc3)c(=O)n(C)c2=O)c1,"inconclusive: 12.6 µM [inhibitor, single point]",–
Cc1cc(C)nc(NS(=O)(=O)c2ccc(-n3cccc3)cc2)n1,"inconclusive: 35.5 µM [inhibitor, partial curve]",–
CCCn1c(=O)c2sccc2n2c(CCCC(=O)NCc3ccco3)nnc12,"inconclusive: 50.1 µM [inhibitor, partial curve]",–
COC(=O)\C(C(C)=O)=C(/C=C/C=C/C=C/N(C)C)N(C)C,active: 21.2 µM,–
COC1=CC(=O)C(O)=C(CCCCCCC/C=C/CCCCCCCC2=C(O)C(=O)C=C(OC)C2=O)C1=O,active: 35.5 µM,–
O=C(O)C1CSC(c2ccc3c(c2)OCO3)N1 (stereo not drawn),–,inactive: -22.6%
COc1ccc(CN(C)CC(=O)NC(=O)NCc2ccccc2)c(OC)c1,"inconclusive: 39.8 µM [inhibitor, single point]",–
CO/N=C(\C(=O)N[C@@H]1C(=O)N2C(C(=O)O)=C(COC(C)=O)CS[C@H]12)c1csc(N)n1 (stereo in doubt),"inconclusive: 35.5 µM [inhibitor, partial curve]",–
CN1CCN(CCOc2ccc(Cl)c(Cl)c2)CC1,"inconclusive: 22.4 µM [inhibitor, full curve, poor fit]",–
CS(=O)(=O)N(CCc1ccccc1)CC(=O)Nc1ccc(Br)cc1F,–,inactive: -3.59%
CN(C)c1ccc(C=c2c3cc([N+](=O)[O-])ccc3n3c2cc(-c2ccccc2)[n+]3C)cc1,active: 35.5 µM,–
O=C(CSc1nnc(COc2ccccc2)o1)NCCc1ccccc1,"inconclusive: 89.1 µM [inhibitor, single point]",–
CC(=O)N1CCN(CC(=O)NC(=O)Nc2ccc3c(c2)OCCO3)CC1,–,inactive: 3.44%
